Measurements taken from article PMC13034042.
These are yes or no findings as the source states them, for the method shown. In cells and extracts the contact can be indirect. Here binding means that the protein was enriched with, or labelled near, the bait; the list need not be complete. For some of these results: Where a sequence is shown, tags or fusion partners need not be part of it. Each block holds one substance with its values, some of them ahead of it.

Protein sequences, listed by entry. Tags and fused reporters are not part of them. Lines headed by an entry give the natural chain unless they say otherwise; changes in a name come on top.
UniProt P04650: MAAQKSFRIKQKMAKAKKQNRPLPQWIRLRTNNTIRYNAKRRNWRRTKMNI
UniProt P05748: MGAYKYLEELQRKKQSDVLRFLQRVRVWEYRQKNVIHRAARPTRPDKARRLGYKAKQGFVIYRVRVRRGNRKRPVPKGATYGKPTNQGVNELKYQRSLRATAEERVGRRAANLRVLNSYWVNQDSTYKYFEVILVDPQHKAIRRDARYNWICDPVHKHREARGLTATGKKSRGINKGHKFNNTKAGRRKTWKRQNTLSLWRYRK
UniProt P17076: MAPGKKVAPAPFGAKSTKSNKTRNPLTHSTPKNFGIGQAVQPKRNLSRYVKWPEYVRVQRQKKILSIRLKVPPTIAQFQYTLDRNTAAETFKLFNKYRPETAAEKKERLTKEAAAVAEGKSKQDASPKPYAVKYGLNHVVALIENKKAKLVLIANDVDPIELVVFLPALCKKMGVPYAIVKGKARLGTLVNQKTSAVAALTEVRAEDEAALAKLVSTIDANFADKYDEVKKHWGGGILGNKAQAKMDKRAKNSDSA
UniProt P0CX27: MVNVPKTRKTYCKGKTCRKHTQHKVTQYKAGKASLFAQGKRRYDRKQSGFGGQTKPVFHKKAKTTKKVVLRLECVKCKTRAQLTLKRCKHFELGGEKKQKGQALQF
UniProt P04449: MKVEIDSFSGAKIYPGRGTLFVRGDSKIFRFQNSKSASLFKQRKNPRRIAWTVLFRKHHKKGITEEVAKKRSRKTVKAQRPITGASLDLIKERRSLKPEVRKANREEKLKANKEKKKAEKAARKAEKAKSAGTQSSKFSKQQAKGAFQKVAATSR
UniProt P14126: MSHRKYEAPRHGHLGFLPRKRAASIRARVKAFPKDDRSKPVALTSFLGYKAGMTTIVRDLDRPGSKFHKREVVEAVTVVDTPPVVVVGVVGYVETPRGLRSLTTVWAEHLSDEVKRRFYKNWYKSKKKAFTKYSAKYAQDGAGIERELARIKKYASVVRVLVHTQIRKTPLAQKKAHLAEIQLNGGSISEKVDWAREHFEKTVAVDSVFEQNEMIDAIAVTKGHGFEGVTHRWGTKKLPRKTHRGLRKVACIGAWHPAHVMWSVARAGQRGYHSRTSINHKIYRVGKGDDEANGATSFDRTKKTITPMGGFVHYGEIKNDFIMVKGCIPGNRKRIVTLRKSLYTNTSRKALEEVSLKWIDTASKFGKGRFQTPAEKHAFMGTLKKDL
UniProt P0CX44: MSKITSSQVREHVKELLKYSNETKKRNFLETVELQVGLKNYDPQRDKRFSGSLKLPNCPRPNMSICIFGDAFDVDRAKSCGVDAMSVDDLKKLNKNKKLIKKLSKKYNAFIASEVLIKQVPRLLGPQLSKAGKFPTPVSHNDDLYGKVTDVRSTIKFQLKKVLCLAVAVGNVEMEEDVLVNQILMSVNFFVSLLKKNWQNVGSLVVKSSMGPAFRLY
UniProt Q02821: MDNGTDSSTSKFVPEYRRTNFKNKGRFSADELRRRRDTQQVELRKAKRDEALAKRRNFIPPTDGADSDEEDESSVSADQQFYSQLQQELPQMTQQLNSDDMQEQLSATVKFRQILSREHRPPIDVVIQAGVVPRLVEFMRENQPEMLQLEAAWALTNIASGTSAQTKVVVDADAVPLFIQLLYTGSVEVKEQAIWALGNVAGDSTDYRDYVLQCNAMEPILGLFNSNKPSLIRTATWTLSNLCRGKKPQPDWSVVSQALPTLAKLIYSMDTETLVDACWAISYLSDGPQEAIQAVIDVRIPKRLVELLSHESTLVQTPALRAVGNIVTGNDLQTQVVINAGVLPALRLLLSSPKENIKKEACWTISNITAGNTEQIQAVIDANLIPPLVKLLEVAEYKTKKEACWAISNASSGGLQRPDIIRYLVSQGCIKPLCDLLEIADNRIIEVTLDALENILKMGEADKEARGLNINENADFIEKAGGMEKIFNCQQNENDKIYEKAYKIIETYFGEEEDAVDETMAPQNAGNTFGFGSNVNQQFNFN
UniProt P25293: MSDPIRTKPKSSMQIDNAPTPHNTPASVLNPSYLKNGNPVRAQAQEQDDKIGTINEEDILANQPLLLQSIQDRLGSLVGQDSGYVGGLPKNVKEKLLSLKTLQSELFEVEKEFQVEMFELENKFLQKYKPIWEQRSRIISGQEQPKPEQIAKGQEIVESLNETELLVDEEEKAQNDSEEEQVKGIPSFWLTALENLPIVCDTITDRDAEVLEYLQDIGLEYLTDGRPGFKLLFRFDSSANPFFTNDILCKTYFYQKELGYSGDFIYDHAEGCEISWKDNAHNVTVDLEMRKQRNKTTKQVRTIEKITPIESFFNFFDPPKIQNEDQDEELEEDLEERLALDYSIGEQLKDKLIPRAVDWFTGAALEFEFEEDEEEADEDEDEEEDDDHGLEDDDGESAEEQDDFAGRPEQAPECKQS
UniProt Q12690: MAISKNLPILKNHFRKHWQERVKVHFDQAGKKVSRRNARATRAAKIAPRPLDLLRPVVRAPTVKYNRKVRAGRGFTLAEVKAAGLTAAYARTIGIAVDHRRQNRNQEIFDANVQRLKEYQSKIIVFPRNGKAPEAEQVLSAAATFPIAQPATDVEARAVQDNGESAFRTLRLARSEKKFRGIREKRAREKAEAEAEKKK
UniProt P53067: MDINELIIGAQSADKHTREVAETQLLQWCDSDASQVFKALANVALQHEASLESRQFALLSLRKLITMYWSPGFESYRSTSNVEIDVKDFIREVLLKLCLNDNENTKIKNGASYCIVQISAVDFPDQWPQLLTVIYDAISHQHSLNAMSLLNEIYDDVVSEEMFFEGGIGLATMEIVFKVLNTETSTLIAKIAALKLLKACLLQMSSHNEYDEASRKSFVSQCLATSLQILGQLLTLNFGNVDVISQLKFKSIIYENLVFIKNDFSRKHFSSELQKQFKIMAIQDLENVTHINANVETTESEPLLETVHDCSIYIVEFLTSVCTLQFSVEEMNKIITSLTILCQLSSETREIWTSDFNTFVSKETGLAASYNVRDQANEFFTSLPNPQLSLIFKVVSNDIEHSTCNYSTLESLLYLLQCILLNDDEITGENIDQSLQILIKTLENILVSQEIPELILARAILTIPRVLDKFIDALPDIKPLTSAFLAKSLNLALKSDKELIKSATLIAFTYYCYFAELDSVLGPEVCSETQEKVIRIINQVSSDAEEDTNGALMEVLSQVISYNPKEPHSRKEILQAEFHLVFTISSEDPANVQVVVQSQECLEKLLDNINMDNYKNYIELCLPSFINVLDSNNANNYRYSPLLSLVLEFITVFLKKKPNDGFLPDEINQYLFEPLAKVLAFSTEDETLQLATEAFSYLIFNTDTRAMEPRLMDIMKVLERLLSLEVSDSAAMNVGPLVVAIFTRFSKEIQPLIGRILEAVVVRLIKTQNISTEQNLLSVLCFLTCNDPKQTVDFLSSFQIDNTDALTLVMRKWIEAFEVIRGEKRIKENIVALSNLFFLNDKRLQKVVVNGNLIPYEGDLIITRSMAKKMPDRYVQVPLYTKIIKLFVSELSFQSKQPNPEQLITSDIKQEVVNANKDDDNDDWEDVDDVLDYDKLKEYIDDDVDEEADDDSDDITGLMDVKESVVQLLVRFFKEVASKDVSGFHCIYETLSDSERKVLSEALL
UniProt Q07915: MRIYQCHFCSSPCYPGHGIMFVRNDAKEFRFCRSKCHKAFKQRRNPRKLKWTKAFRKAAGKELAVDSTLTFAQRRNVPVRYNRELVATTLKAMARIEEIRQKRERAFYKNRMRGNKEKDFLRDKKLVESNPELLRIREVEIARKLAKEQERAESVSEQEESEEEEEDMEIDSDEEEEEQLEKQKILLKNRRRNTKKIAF
UniProt P0CX42: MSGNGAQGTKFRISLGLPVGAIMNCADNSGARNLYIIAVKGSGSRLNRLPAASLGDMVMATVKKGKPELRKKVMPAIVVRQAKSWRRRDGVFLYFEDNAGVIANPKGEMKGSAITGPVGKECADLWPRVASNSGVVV

Experiments:
Assay in all cases: proximity labelling; TurboID-fused bait expressed from a centromeric CUP1-promoter plasmid in S. cerevisiae YDK11-5A; 500 μM copper sulphate and 500 μM biotin for 1 h at 30°C; biotinylated proteins purified on streptavidin agarose and identified by LC-MS/MS; enrichment against the GFP-TurboID and NLS-GFP-TurboID type controls
[1] = target: T1, TurboID-tagged Bcp1 (both baits) (S. cerevisiae) (UniProt Q06338)
T1 sequence: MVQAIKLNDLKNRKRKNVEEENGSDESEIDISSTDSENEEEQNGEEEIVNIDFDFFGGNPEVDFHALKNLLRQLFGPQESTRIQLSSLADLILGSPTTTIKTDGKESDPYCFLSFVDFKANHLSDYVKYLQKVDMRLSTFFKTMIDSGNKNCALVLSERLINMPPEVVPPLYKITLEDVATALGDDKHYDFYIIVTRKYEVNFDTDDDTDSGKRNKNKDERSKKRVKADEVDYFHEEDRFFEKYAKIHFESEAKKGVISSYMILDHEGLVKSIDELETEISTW

[2] = target: T2, TurboID-Rpl6a (S. cerevisiae) (UniProt Q02326)
T2 sequence: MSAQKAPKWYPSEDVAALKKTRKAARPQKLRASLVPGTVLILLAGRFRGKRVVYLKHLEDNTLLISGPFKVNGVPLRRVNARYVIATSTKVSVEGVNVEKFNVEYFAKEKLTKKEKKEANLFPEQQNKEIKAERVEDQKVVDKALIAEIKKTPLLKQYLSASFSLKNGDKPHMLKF

[3] = target: TurboID-tagged Rpl39 (S. cerevisiae) (UniProt P04650)
[4] = target: TurboID-tagged Rpl15 (S. cerevisiae) (UniProt P05748)
[5] = target: TurboID-tagged Rpl8 (both baits) (S. cerevisiae) (UniProt P17076)
[6] = target: TurboID-tagged Rpl42 (S. cerevisiae) (UniProt P0CX27)
[7] = target: TurboID-tagged Rpl24 (S. cerevisiae) (UniProt P04449)
[8] = target: Rpl3-TurboID (S. cerevisiae) (UniProt P14126)
[9] = target: T3, TurboID-tagged Acl4 (both baits) (S. cerevisiae) (UniProt Q03771)
T3 sequence: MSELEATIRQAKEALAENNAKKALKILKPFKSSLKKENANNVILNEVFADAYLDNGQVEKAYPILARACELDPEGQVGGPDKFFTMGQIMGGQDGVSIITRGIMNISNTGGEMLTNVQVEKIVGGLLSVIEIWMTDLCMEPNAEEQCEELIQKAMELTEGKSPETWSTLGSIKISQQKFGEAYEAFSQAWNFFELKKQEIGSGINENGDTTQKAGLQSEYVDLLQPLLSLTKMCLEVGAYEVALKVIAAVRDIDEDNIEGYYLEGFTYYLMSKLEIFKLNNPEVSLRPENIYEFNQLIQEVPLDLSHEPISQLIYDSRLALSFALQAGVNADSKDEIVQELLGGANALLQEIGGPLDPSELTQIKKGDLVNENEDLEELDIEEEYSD

[10] = target: TurboID-Rpl1b (S. cerevisiae) (UniProt P0CX44)
[11] = target: Rpl1b-TurboID (S. cerevisiae) (UniProt P0CX44)

Substance: Kap60 (endogenous) (from UniProt Q02821 1-542)
binding [1]: binds

Substance: Nap1 (endogenous) (from UniProt P25293 1-417)
binding [3]: binds | binding [4]: binds | binding [5]: binds | binding [6]: binds | binding [7]: binds

Substance: Rpl4 (endogenous) (S. cerevisiae (endogenous in YDK11-5A))
binding [9]: binds

Substance: Rpl13 (endogenous) (from UniProt Q12690)
binding [10]: binds | binding [11]: binds

Second part, the substance after the results:

binding [2]: binds
Substance: Kap114 (endogenous) (from UniProt P53067 1-1004)

binding [1]: binds | binding [8]: binds
Substance: Rlp24 (endogenous) (from UniProt Q07915 1-199)

binding [1]: binds
Substance: Rpl23 (endogenous) (from UniProt P0CX42 1-137)
